In patent publication EP0987023A1, “Transition metal complexes of non steroidal anti-inflammatory drugs” (PANACEA BIOTEC LIMITED, priority 1998, dated 2000):

What was measured:
[1] = collected values of NSAIDs; cited from earlier work
[2] = test system: rats; assay: Ulcerogenic effect evaluated by ulcer index in rats; conditions: n=3, 4 mg/kg p.o.
[3] = test system: Cyclooxygenase 2/Cyclooxygenase 1; conditions: IC50 (µg/ml) of COX2 divided by IC50 for COX1; values below 1 indicate selectivity for COX2; from Drugs of Today Vol. 32 Suppl. D 1996 p. 5; cited from earlier work

**Q.** Which LD50 [1] does the source give for `COc1ccc2cc([C@H](C)C(=O)O)ccc2c1` [Naproxen, (+) -2-(6-Methoxy-2-haphthyl) propionic acid] here?
**A.** The LD50 was 395 mg/kg.

**Q.** And the “Therapeutic Index” value [1]?
**A.** Its value is 190.

**Q.** What about the “Ulcer Index” value [2] of the same molecule?
**A.** The value was 4.66±1.01.

**Q.** What about the “Cyclooxygenase 2/Cyclooxygenase 1 ratio” value [3] of the same molecule?
**A.** The value was 0.6.
